Data on 42 sequences can be found in article PMC7819943, “Rice protein-binding microarrays: a tool to detect cis-acting elements near promoter regions in rice”.

The other results are listed elsewhere or left out.

This assay has as its target T1, OsSMF1 (Oryza sativa, UniProt Q6ZLB0 1-436).
T1 sequence: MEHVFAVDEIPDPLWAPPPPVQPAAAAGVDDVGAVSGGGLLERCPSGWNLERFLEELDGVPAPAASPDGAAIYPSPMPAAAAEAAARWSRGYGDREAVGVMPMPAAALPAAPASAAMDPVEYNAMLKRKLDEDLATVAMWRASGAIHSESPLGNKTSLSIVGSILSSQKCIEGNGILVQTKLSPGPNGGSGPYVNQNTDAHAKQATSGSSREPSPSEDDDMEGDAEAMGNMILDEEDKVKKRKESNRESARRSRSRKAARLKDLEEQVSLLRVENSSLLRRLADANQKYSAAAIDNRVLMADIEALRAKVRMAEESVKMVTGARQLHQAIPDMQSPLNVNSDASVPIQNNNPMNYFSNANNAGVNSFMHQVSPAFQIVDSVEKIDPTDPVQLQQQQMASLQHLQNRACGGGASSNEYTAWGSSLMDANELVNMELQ
As to the kind of experiment: protein-binding microarray (RPBM); PBS, 2% BSA, 51.3 ng/ul salmon testes DNA, 50 uM zinc acetate, 200 nM TF, 25 C, 1 h; high values mean tight binding. The following applies: protein: recombinant; tags: N-terminal polyhistidine and DsRed monomer fusion (pET32a); chain copies: 2; label: CyDye5-dUTP incorporated in the synthesized complementary strand; 3' TTTTT single-stranded linker to array surface; dsDNA, one strand shown. Put shortly:
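The binding signal is fluorescence intensity per array feature (arbitrary units). Readings came from an Axon 4000B scanner after a washed, 2% BSA-blocked, double-stranded custom Agilent array had been incubated for 1 h at 25 °C with 200 nM protein and 50 µM zinc acetate. The protein was a Ni–NTA-purified transcription factor fused N-terminally to polyhistidine and DsRed, expressed in E. coli BL21-CodonPlus.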
In the case of “ATCGCGCATCCACTCCACACCACACGCTTCACTGGTTCCGCGGAGTCACCTAGTGCAG”, the binding signal is 3870 fluorescence intensity (a.u.).

As to “AAAGCCTGTGGCCACATCTTATCTTTTCCATCCTTTGCATCGGAGTCACCTAGTGCAG”, the binding signal is 3220 fluorescence intensity (a.u.).

As for “ATGCCACGCGTACGAGTCCCGTGACGTGCTGGCCCGCTACCGGAGTCACCTAGTGCAG”, the binding signal was 7140 fluorescence intensity (a.u.).

In the case of “TATTATCTCTCGGCAGACCTACGATCTTACGTAGCTTACCCGGAGTCACCTAGTGCAG”, the binding signal was 3550 fluorescence intensity (a.u.).

Take “TGTATTTGCTACCGTTTTCCAATATGTACCGTCATGTTTCCGGAGTCACCTAGTGCAG”: the binding signal is 3920 fluorescence intensity (a.u.).

As to “GCATGCCAAAATATGCTACGACGATGATGACGACGATTCCCGGAGTCACCTAGTGCAG”, the binding signal is 4530 fluorescence intensity (a.u.).

For the sequence “AAAGGGGATAGTGCAGAAGTTACCTGGTCATCTTATGGCTCGGAGTCACCTAGTGCAG”, the binding signal is 3540 fluorescence intensity (a.u.).

Turning to “ACGTTCTACGTGTCAAGAAGAAATGGTTCTCAACCCTCTCCGGAGTCACCTAGTGCAG”, the binding signal is 4320 fluorescence intensity (a.u.).

Turning to “TTCCACTGACATCTGTCGCCACGAAAACGTGGCCCCTCCGCGGAGTCACCTAGTGCAG”, the binding signal is 4070 fluorescence intensity (a.u.).

Turning to “ATGGTTCTAGTATTACGTGGCGCCTATGTGGCAGTGGCTCCGGAGTCACCTAGTGCAG”, the binding signal was 27400 fluorescence intensity (a.u.).

As to “ATCTTCAAATCAATAGAATCATCATAATGATGATCTAGCTCGGAGTCACCTAGTGCAG”, the binding signal is 3530 fluorescence intensity (a.u.).

On to “GTTTTGCGTACGTGGCTGCACTTGAGTCGTCCGATGGGAACGGAGTCACCTAGTGCAG”, for which the binding signal is 6960 fluorescence intensity (a.u.).

“CCAGACACCAAGTGACCGAGAGATAAGGCTCATACAGGCACGGAGTCACCTAGTGCAG”: the binding signal was 16100 fluorescence intensity (a.u.).

On to “AGAGTGAGAGTTTTACAGTCAAGTAATGCGTGGCAAGCCACGGAGTCACCTAGTGCAG”, for which the binding signal was 6540 fluorescence intensity (a.u.).

As for “TGATACACACGCACGCACGCACGCACACGTACACACACAACGGAGTCACCTAGTGCAG”, the binding signal was 3880 fluorescence intensity (a.u.).

Consider “AAAAGTCTTTTGCTTCGCTGAAAGCACCATTCTTCTCCAACGGAGTCACCTAGTGCAG”, for which the binding signal is 35600 fluorescence intensity (a.u.).

Regarding “AAGCTTCTAGGAGTATTGCGTACTACTCCGTAGTAGAGTGCGGAGTCACCTAGTGCAG”, the binding signal is 3510 fluorescence intensity (a.u.).

Turning to “ATTTGCAGCTCGACCTTTGAAGTCGTTGCTACGTGGAGTACGGAGTCACCTAGTGCAG”, the binding signal was 5270 fluorescence intensity (a.u.).

Take “TCCCAAATTCCGATTTCTCACTGATGGTACCCTCATTTGTCGGAGTCACCTAGTGCAG”: the binding signal is 3200 fluorescence intensity (a.u.).

In the case of “TCAACAACCATCTTCACGTGCTATAGGTTAGCTGTCAGATCGGAGTCACCTAGTGCAG”, the binding signal was 3520 fluorescence intensity (a.u.).

Regarding “GTCGTTGTGTGCGTGCATGGCACTGTTGATGTCGAGTATACGGAGTCACCTAGTGCAG”, the binding signal is 3200 fluorescence intensity (a.u.).

For the sequence “TAATGCTTCATGCATGTGTTCAAAGATTCGATGTGATGTTCGGAGTCACCTAGTGCAG”, the binding signal was 23900 fluorescence intensity (a.u.).

Turning to “GTATCAGGATTTCAATCCTGGTGGGTGGAGTCATGCATCTCGGAGTCACCTAGTGCAG”, the binding signal is 3640 fluorescence intensity (a.u.).

For the sequence “TTTGCTAGAAGCTCCTTAGAAGTTATTATGACTTGGGACGCGGAGTCACCTAGTGCAG”, the binding signal was 3230 fluorescence intensity (a.u.).

With “CGGCAGGTACACCGTGTACAACTACGCCGGCGTGCTGTGGCGGAGTCACCTAGTGCAG”, the binding signal is 3930 fluorescence intensity (a.u.).

On to “GCCCGCAAACTCGGGGTTTCCCCGTCACGCCAGCCGCCCACGGAGTCACCTAGTGCAG”, for which the binding signal is 4970 fluorescence intensity (a.u.).

In the case of “GTTAACACCACAATGAATTATCAAATCCCAAATGGTACTGCGGAGTCACCTAGTGCAG”, the binding signal is 4210 fluorescence intensity (a.u.).

“GTTCTAGCGTGGTCACGACGTGACGTTCCCACGTTCGTCTCGGAGTCACCTAGTGCAG”: the binding signal is 7140 fluorescence intensity (a.u.).

In the case of “GCGTGCCGGGGTTGGGGCTGGCTGTACATACAAATCTTACCGGAGTCACCTAGTGCAG”, the binding signal is 3790 fluorescence intensity (a.u.).

Take “GGCAAAACACGGCACGCCACGCCAATACGTGCGCGCGTCCCGGAGTCACCTAGTGCAG”: the binding signal is 3850 fluorescence intensity (a.u.).

Turning to “GGACTAAAGATGGCTCAACCGGCCACGTGGTTGAGCGATCCGGAGTCACCTAGTGCAG”, the binding signal is 8320 fluorescence intensity (a.u.).

As to “AAAGTAGTTTCTGCACGTAAATCGGACGCTGACGTCAGCGCGGAGTCACCTAGTGCAG”, the binding signal is 36600 fluorescence intensity (a.u.).

In the case of “CTGACAGCAAAAGGCCACACTCCTCACAAATCTCGTGCGCCGGAGTCACCTAGTGCAG”, the binding signal was 3830 fluorescence intensity (a.u.).

Regarding “TGTTCCCCTGCTGCATGCATGCATCGCCCCGCCCTGACCACGGAGTCACCTAGTGCAG”, the binding signal was 15700 fluorescence intensity (a.u.).

Turning to “ATTTGTTGGGCTCTGTGGTTGAGTAGGAATGATATGATTTCGGAGTCACCTAGTGCAG”, the binding signal was 3390 fluorescence intensity (a.u.).

For “TTAAGGGCAAGTTTTACAGTGGATGTGAATGCCACATCTACGGAGTCACCTAGTGCAG”, the binding signal is 3220 fluorescence intensity (a.u.).

As to “TGACCAGATCAGCGACCACCCCATGGTGATGCACTCGTCACGGAGTCACCTAGTGCAG”, the binding signal was 3200 fluorescence intensity (a.u.).

For “ATATATACTCCAAGCTCGGTGAGCCAGCATCACCACCAACCGGAGTCACCTAGTGCAG”, the binding signal is 3220 fluorescence intensity (a.u.).

Turning to “GCAACCGGTGAATCCGAAGCGAGGAAGGAGAGATGGCGAGCGGAGTCACCTAGTGCAG”, the binding signal was 6720 fluorescence intensity (a.u.).

For “ACGACGACGACGACGACGCAACCCCGCGGCGCGCGCCGGCCGGAGTCACCTAGTGCAG”, the binding signal is 3160 fluorescence intensity (a.u.).

For “TTCACTTAAACGGCGTCATCGTCCCATGTTATACTATCACCGGAGTCACCTAGTGCAG”, the binding signal was 3620 fluorescence intensity (a.u.).

As for “AGTAAAATCAATCTATATATGAAGTATGCCTAGAGTATTGCGGAGTCACCTAGTGCAG”, the binding signal is 3300 fluorescence intensity (a.u.).
